These are yes or no findings as the source states them, for the method shown. Binding calls can cover weak binding; strength is not graded here.
Key:
[1] = biological target: T1, galanin receptor 1 (GALR1)-TEV (human) (UniProt P47211); assay: LinkLight assay (TEV protease on one partner cuts permuted luciferase on the other; luminescence end point); HEK293 cells stably expressing GPCR-TEV and 14-3-3ε-pLuc; serum-free DMEM, serial 1:3 dilution of ligand, 37 °C, 180 min unless otherwise specified; signal present without agonist and diminished by agonist (for MOR1 raised by naloxone and naltrexone)
T1 sequence: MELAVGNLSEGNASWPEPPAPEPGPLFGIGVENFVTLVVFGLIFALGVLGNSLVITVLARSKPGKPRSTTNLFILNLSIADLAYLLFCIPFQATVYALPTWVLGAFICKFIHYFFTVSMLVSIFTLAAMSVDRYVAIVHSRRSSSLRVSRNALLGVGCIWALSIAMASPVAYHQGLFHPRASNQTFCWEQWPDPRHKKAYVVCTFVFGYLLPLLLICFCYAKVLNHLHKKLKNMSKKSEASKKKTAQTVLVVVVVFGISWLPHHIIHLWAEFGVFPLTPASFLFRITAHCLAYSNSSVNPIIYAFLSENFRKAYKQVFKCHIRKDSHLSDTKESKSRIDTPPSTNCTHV

[2] = biological target: T2, neuropeptide S receptor 1 (NPSR1)-TEV (human) (UniProt Q6W5P4); assay: LinkLight assay (TEV protease on one partner cuts permuted luciferase on the other; luminescence end point); HEK293 cells stably expressing GPCR-TEV and 14-3-3ε-pLuc; serum-free DMEM, serial 1:3 dilution of agonist, 37 °C, 240 min unless otherwise specified; agonist-induced signals
T2 sequence: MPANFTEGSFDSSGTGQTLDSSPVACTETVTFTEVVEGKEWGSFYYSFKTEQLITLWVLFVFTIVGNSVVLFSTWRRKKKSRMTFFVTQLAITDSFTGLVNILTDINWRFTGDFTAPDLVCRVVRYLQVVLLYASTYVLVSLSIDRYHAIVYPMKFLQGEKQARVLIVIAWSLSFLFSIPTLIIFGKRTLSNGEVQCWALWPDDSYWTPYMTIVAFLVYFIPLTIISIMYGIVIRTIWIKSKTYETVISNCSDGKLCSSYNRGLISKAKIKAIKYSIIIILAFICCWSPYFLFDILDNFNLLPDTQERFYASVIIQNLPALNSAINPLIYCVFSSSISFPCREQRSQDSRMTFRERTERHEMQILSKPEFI

[3] = biological target: T3, sphingosine-1-phosphate receptor 4 (S1PR4)-TEV (human) (UniProt O95977); assay: as above
T3 sequence: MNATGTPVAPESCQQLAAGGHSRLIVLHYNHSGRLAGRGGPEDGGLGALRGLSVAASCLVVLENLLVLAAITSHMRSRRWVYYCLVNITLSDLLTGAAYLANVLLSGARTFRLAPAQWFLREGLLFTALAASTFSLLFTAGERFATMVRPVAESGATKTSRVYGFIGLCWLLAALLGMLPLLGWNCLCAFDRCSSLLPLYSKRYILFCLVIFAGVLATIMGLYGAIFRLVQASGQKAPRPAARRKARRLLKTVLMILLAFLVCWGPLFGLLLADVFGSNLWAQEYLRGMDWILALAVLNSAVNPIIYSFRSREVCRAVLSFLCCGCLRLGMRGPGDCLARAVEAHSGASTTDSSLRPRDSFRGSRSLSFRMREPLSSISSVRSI

[4] = biological target: T4, adenosine A2B (A2B) receptor-TEV (human) (UniProt P29275); assay: as above
T4 sequence: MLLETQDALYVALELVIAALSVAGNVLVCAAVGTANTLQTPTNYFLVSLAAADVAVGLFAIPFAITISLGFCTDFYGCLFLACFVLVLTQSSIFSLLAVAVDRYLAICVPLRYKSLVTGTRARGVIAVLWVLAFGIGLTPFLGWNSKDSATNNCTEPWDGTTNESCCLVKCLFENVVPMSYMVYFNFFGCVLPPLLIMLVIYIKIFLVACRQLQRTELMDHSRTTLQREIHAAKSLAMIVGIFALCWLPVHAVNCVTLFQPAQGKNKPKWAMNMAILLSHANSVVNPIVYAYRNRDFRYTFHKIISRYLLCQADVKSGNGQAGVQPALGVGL

binding [1]: binds
binding [2]: binds
binding [3]: binds
binding [4]: binds
Substance: 14-3-3ε-pLuc (14-3-3ε-permuted luciferase)
